Measurements reported in patent publication US20220160826A1.
Results are given in words; binding and its absence hold for the method and conditions named. In cells and extracts the contact can be indirect. Some results given as binding are weak or reduced against the parent protein; the word gives no strength. Tags and fused reporters may be left off the sequences shown.

Biological target: T1, Myc-A20 (Myc epitope-tagged A20, TNFAIP3) (UniProt P21580)
T1 sequence (looked up): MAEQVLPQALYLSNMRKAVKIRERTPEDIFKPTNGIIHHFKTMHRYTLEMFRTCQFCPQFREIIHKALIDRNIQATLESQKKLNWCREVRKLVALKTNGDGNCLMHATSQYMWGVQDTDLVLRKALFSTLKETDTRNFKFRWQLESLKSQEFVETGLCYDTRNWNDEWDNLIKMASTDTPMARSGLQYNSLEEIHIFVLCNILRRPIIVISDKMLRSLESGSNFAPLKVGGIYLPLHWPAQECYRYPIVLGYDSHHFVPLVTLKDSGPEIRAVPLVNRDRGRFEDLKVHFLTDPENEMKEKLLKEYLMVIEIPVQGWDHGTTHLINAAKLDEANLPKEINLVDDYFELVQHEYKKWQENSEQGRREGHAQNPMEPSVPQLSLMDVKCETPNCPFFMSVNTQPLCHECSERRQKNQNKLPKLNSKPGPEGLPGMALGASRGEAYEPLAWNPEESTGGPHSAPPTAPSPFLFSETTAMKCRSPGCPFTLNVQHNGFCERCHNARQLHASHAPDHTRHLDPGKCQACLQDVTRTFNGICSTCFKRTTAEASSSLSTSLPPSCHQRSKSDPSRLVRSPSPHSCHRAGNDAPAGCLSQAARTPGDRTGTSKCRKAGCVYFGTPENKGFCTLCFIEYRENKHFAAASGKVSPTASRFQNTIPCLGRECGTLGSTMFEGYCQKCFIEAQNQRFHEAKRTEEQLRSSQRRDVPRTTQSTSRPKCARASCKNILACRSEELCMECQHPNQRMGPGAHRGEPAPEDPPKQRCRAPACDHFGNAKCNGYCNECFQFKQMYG
Assay: co-immunoprecipitation with anti-HA antibody from transfected 293-T cells, western blot

“HA-YAP2 (HA epitope-tagged YAP1 isoform 2) (from UniProt P46937 1-488)” was tested, and the binding was “binds”.

In the case of “HA-YAP9 (HA epitope-tagged YAP1 isoform 9) (from UniProt P46937 1-508)”, the binding is reported as “binds”.
